According to publication PMC12670160, “A drug-repurposing screen of FDA- and EMA-approved drugs identifies two NF-κB inhibitors active against eumycetoma” (Journal of Antimicrobial Chemotherapy, 2025):
The whole screen tested about 5,300 compounds, of which about 130 (2.5%) showed an effect of 50% or more. Some of the results follow.

What follows are molecules tested on M. mycetomatis strain mm55. Settings: primary screen, metabolic activity vs growth control; 96 h, 2 µM; inhibitor.
In the case of `CCCSc1nc(N[C@@H]2C[C@H]2c2ccc(F)c(F)c2)c2nnn([C@@H]3C[C@H](OCCO)[C@@H](O)[C@H]3O)c2n1` [ONC0004467, ticagrelor], the “% viability” value was 113.4%.
For `Oc1c(I)cc(I)cc1I` [ONC0003717, am24], the “% viability” value was 112.6%.
For `N=C(N)c1ccc(/C=C/c2ccc(C(=N)N)cc2O)cc1` [ONC0003463, hydroxystilbamidine], the “% viability” value was 43.6%.
For `COc1ccc(-c2ccc3ncc4c(c3c2)n(-c2ccc(N3CCNCC3)c(C(F)(F)F)c2)c(=O)n4C)cn1` [ONC0004479, nvpbgt226], the “% viability” value was 119.2%.
With `O=C(Nc1ccc(C(O)(C(F)(F)F)C(F)(F)F)cc1)c1ccc(C(F)(F)F)cc1` [ONC0000412, sr1078] the “% viability” value was 46.34%.
In the case of `COc1cccc(CCc2ccccc2OCC[C@@H]2C[C@@H](O)CN2C)c1` [ONC0001734, r96544], the “% viability” value was 92.52%.
In the case of `CC(=O)O[C@]1(C(C)=O)CC[C@H]2[C@@H]3C=C(Cl)C4=CC(=O)[C@@H]5C[C@@H]5[C@]4(C)[C@H]3CC[C@@]21C` [ONC0005384, cyproteroneacetate], the “% viability” value was 126.3%.
`CC(C)c1cc(-c2n[nH]c(=O)n2-c2ccc3c(ccn3C)c2)c(O)cc1O` [ONC0004686, ganetespib sta9090] was tested, and the “% viability” value was 103%.
`O=C(O)C1CCCN(CCC=C(c2ccccc2)c2ccccc2)C1` (centres unmarked) [ONC0000231, skf89976a] was tested, and the “% viability” value was 54.46%.
`O=C1c2ccccc2C(=O)C1c1ccc(Cl)cc1` [ONC0004251, chlorindione] was tested, and the “% viability” value was 77.21%.
With `O=C(O)c1ccccn1` [ONC0003765, picolinicacid] the “% viability” value was 105.8%.
`CN(C)CC(O)Cn1c2ccc(Br)cc2c2cc(Br)ccc21` (centres unmarked) [ONC0001876, wiskostatin] was tested, and the “% viability” value was 62.56%.
In the case of `CCCc1c2oc(C(=O)O)cc(=O)c2cc2c(=O)cc(C(=O)O)n(CC)c12` [ONC0000883, nedocromil], the “% viability” value was 92.67%.
With `Nc1nc(O)c2nc(Br)n([C@@H]3O[C@@H]4COP(=O)(O)O[C@H]4[C@H]3O)c2n1` [ONC0001556, 8bromocgmp] the “% viability” value was 117.8%.
`N[C@H]1C[C@@H]1c1ccc(-c2cccc(O)c2)cc1` [ONC0004698, ogl002] was tested, and the “% viability” value was 135.7%.
With `C#C[C@]1(OC(C)=O)CC[C@H]2[C@@H]3CCC4=CC(=NO)CC[C@@H]4[C@H]3CC[C@@]21CC` (mixture of isomers) [ONC0004199, norgestimate] the “% viability” value was 105%.
With `COc1cc2c(cc1OC)[C@@H](Cc1cc(OC)c(OC)c(OC)c1)[N+](C)(CCCOC(=O)CC/C=C/CCC(=O)OCCC[N+]1(C)CCc3cc(OC)c(OC)cc3[C@H]1Cc1cc(OC)c(OC)c(OC)c1)CC2` (some centres unmarked) [ONC0003343, mivacurium chloride] the “% viability” value was 67.68%.
